Experimental data from patent US7645740B2, “Peptide sequence found in Laminin 5 for treating skin impairments” (Laboratoires d'Anjou Centre National de la Recherche …, priority 2004, dated 2010).

Assay: Quantity of peptide immobilized on 96-well plates by amino acid analysis
Experimental: The peptide was diluted in sterile PBS. Samples containing the peptide to be assayed were lyophilized by evaporation. They were deposited in a reactor and placed under vacuum in order to eliminate oxygen likely to oxidize certain amino acids. Hydrolysis of the peptide bonds was carried out in a hydrochloric acid mixture (HCL 6N, ⅔), trifluoroacetic acid (TFA, ⅓) at 150° C. for 45 minutes. Gas hydrolysis prevented contamination by ions present in the acids. The samples were then dried and dissolved in a suitable buffer for ion-exchange chromatography (sodium citrate). Ion-exchange chromatography makes it possible to separate amino acids according to their ionic strength and, on leaving the column, they react with a reagent (ninhydrin) to form a dyed complex with primary amines (violet, readable at 570 nm). Ninhydrin also reacts with secondary amines (proline, hydroxyproline) to form a yellow compound that can be read at 440 nm. Two separate chromatograms allow the samples to be analysed.
A semi-automatic Beckman 6300 analyser optimised for this analysis was used along with Beckman Gold software in order to quantify the chromatograms. The results were transferred to an MS-Excel table with a macro to enable calculation of relative compositions.
The cell adhesion experiments conducted with the peptide require a preliminary step to immobilize the peptide on 96-well plates. […] The solutions were then removed by aspiration and the peptide is immobilized on the surface, ready to interact with cells added during the cell adhesion test itself. […]
FIG. 17 gives the data obtained in the experiments aimed at identifying the assay conditions for the peptide deposited in 96-well plates and not immobilized. Five experiments were carried out with decreasing quantities of peptide, from 5 μg to 0.7 μg. For each condition, a given quantity of peptide was deposited in 3 different wells (100 μg/well) on a 96-well plate. […] This further signifies that the difference between starting quantity and supernatant quantity was too low to be detected and was certainly within the deviation range from the assay mean for the starting solution. The experiment was therefore repeated with lower quantities of peptide deposited in the wells: 3.55 μg, 2.56 μg, 1.23 μg and 0.73 μg. These quantities of peptide were sufficient to carry out the experiment since we obtained equivalent results for these four conditions. The quantity of peptide remaining in the supernatant after immobilization is approximately 90% of the quantity of peptide added.
A second step involved using two different peptide quantities (Q1 and Q2) to carry out the assay on a larger number of samples (FIG. 18). […] Five different wells on the 96-well plate received quantity Q1 (volume 100 μl) and five other well received quantity Q2 (volume 100 μl). […]

TALRIRATYGEY (Human laminin 5) [Peptide 1]
peptide immobilized (Q1, 2.44 μg): 9.3%
peptide remained in solution after immobilization (Q1, 2.44 μg): 90.7%
peptide quantity not immobilized (Q2, 1.09 μg): 92%
mean quantity in the supernatants after immobilization (Q2, mean starting quantity 1.09 μg, five supernatants, 18 hours at +4° C.): 1.002 µg
